PubChem BioAssay AID1159593, NIAID | 2016
Here is an unselected part of 756 reagents tested. Over the whole deposit, 137 (18%) are marked active. 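Active means p65 translocation went either up or down; genes were judged on the median of six siRNAs, not single siRNAs.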 The numbers tell different reagents against one gene apart. Not given: the amount of reagent.

Assay: 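Canonical TLR pathway genes needed for NF-kappaB activation by LPS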
System: RAW264.7 macrophages of mouse, with reporters for p65 (GFP) and the Tnf promoter (mCherry)
Reagents: single siRNA against mouse genes
Duration: 48 to 72 hours after siRNA transfection, then LPS for 40 min
Challenge: LPS (Salmonella minnesota R595) for 40 min before fixation; dose not given
Measurement: 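High-content imaging of GFP-p65 moving into nuclei after 40 min LPS, plate median/MAD normalised, replicate mean of robust z-score relative to negative controls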
Direction: p65 translocation z-score: higher = more nuclear NF-kappaB p65 after LPS
Rule for the call: 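Activity score grows with absolute z: 25 beyond 1, 50 beyond 1.5, 75 beyond 2, 100 beyond 2.5; active calls here sit at about z 1.5 or more either way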
Calls: active = changed p65 translocation (either direction); inactive = no clear change

gene,reagent no.,p65 translocation z-score,call
Ikbke (inhibitor of kappaB kinase epsilon),1,-0.738,inactive
Ikbke (inhibitor of kappaB kinase epsilon),2,-0.85,inactive
Ikbke (inhibitor of kappaB kinase epsilon),3,-1.29,inactive
Ikbke (inhibitor of kappaB kinase epsilon),4,0.233,inactive
Ikbke (inhibitor of kappaB kinase epsilon),5,1.1,inactive
Ikbke (inhibitor of kappaB kinase epsilon),6,-0.808,inactive
"Ets1 (Ets proto-oncogene 1, transcription factor)",1,0.473,inactive
"Ets1 (Ets proto-oncogene 1, transcription factor)",2,0.209,inactive
"Ets1 (Ets proto-oncogene 1, transcription factor)",3,-0.74,inactive
"Ets1 (Ets proto-oncogene 1, transcription factor)",4,1.39,inactive
"Ets1 (Ets proto-oncogene 1, transcription factor)",5,-2.24,active
"Ets1 (Ets proto-oncogene 1, transcription factor)",6,0.237,inactive
"Rel (Rel proto-oncogene, NFKB subunit)",1,-0.639,inactive
"Rel (Rel proto-oncogene, NFKB subunit)",2,0.679,inactive
"Rel (Rel proto-oncogene, NFKB subunit)",3,1.03,inactive
"Rel (Rel proto-oncogene, NFKB subunit)",4,-0.115,inactive
"Rel (Rel proto-oncogene, NFKB subunit)",5,-0.508,inactive
"Rel (Rel proto-oncogene, NFKB subunit)",6,-0.445,inactive
Map2k6 (mitogen-activated protein kinase kinase 6),1,-1.56,active
Map2k6 (mitogen-activated protein kinase kinase 6),2,-1.45,inactive
Map2k6 (mitogen-activated protein kinase kinase 6),3,0.047,inactive
Map2k6 (mitogen-activated protein kinase kinase 6),4,-0.0989,inactive
Map2k6 (mitogen-activated protein kinase kinase 6),5,4.63,active
Map2k6 (mitogen-activated protein kinase kinase 6),6,0.516,inactive
Ikbkb (inhibitor of kappaB kinase beta),1,0.867,inactive
Ikbkb (inhibitor of kappaB kinase beta),2,-1.12,inactive
Ikbkb (inhibitor of kappaB kinase beta),3,-1.64,active
Ikbkb (inhibitor of kappaB kinase beta),4,-0.935,inactive
Ikbkb (inhibitor of kappaB kinase beta),5,0.146,inactive
Ikbkb (inhibitor of kappaB kinase beta),6,-0.136,inactive
Irf5 (interferon regulatory factor 5),1,-0.506,inactive
Irf5 (interferon regulatory factor 5),2,-0.0321,inactive
Irf5 (interferon regulatory factor 5),3,-0.11,inactive
Irf5 (interferon regulatory factor 5),4,-0.0769,inactive
Irf5 (interferon regulatory factor 5),5,-0.366,inactive
Irf5 (interferon regulatory factor 5),6,-2.36,active
Tlr6 (toll-like receptor 6),1,0.31,inactive
Tlr6 (toll-like receptor 6),2,0.0936,inactive
Tlr6 (toll-like receptor 6),3,-1.12,inactive
Tlr6 (toll-like receptor 6),4,0.263,inactive
Tlr6 (toll-like receptor 6),5,0.418,inactive
Tlr6 (toll-like receptor 6),6,-0.138,inactive
Map2k4 (mitogen-activated protein kinase kinase 4),1,0.731,inactive
Map2k4 (mitogen-activated protein kinase kinase 4),2,-0.339,inactive
Map2k4 (mitogen-activated protein kinase kinase 4),3,0.0352,inactive
Map2k4 (mitogen-activated protein kinase kinase 4),4,-1.62,active
Map2k4 (mitogen-activated protein kinase kinase 4),5,-0.855,inactive
Map2k4 (mitogen-activated protein kinase kinase 4),6,0.187,inactive
Traf3 (TNF receptor-associated factor 3),1,0.296,inactive
Traf3 (TNF receptor-associated factor 3),2,-0.0827,inactive
Traf3 (TNF receptor-associated factor 3),3,0.252,inactive
Traf3 (TNF receptor-associated factor 3),4,0.0278,inactive
Traf3 (TNF receptor-associated factor 3),5,2.08,active
Traf3 (TNF receptor-associated factor 3),6,0.782,inactive
Ikbkg (inhibitor of kappaB kinase gamma),1,-1.58,active
Ikbkg (inhibitor of kappaB kinase gamma),2,-0.825,inactive
Ikbkg (inhibitor of kappaB kinase gamma),3,0.249,inactive
Ikbkg (inhibitor of kappaB kinase gamma),4,-2.36,active
Ikbkg (inhibitor of kappaB kinase gamma),5,-1.34,inactive
Ikbkg (inhibitor of kappaB kinase gamma),6,1.3,inactive
Tab2 (TGF-beta activated kinase 1/MAP3K7 binding protein 2),1,-0.55,inactive
Tab2 (TGF-beta activated kinase 1/MAP3K7 binding protein 2),2,-1.04,inactive
Tab2 (TGF-beta activated kinase 1/MAP3K7 binding protein 2),3,0.241,inactive
Tab2 (TGF-beta activated kinase 1/MAP3K7 binding protein 2),4,0.947,inactive
Tab2 (TGF-beta activated kinase 1/MAP3K7 binding protein 2),5,0.797,inactive
Tab2 (TGF-beta activated kinase 1/MAP3K7 binding protein 2),6,-0.354,inactive
Dusp1 (dual specificity phosphatase 1),1,0.153,inactive
Dusp1 (dual specificity phosphatase 1),2,-0.227,inactive
Dusp1 (dual specificity phosphatase 1),3,-0.028,inactive
Dusp1 (dual specificity phosphatase 1),4,0.406,inactive
Dusp1 (dual specificity phosphatase 1),5,-1.54,active
Dusp1 (dual specificity phosphatase 1),6,-1.47,inactive
Akt3 (Akt serine/threonine kinase 3),1,0.721,inactive
Akt3 (Akt serine/threonine kinase 3),2,0.363,inactive
Akt3 (Akt serine/threonine kinase 3),3,-0.422,inactive
Akt3 (Akt serine/threonine kinase 3),4,-0.731,inactive
Akt3 (Akt serine/threonine kinase 3),5,-0.917,inactive
Akt3 (Akt serine/threonine kinase 3),6,-0.973,inactive
Ticam1 (TIR domain containing adaptor molecule 1),1,-2.05,active
Ticam1 (TIR domain containing adaptor molecule 1),2,-0.351,inactive
Ticam1 (TIR domain containing adaptor molecule 1),3,-0.946,inactive
Ticam1 (TIR domain containing adaptor molecule 1),4,2.2,active
Ticam1 (TIR domain containing adaptor molecule 1),5,0.0876,inactive
Ticam1 (TIR domain containing adaptor molecule 1),6,-0.615,inactive
Mapk14 (mitogen-activated protein kinase 14),1,1.62,active
Mapk14 (mitogen-activated protein kinase 14),2,0.63,inactive
Mapk14 (mitogen-activated protein kinase 14),3,0.544,inactive
Mapk14 (mitogen-activated protein kinase 14),4,-0.842,inactive
Mapk14 (mitogen-activated protein kinase 14),5,-0.931,inactive
Mapk14 (mitogen-activated protein kinase 14),6,2.95,active
Mapk11 (mitogen-activated protein kinase 11),1,0.841,inactive
Mapk11 (mitogen-activated protein kinase 11),2,-0.353,inactive
Mapk11 (mitogen-activated protein kinase 11),3,1.03,inactive
Mapk11 (mitogen-activated protein kinase 11),4,-0.555,inactive
Mapk11 (mitogen-activated protein kinase 11),5,-0.0178,inactive
Mapk11 (mitogen-activated protein kinase 11),6,0.857,inactive
Tirap,1,-2.05,active
Tirap,2,-0.64,inactive
Tirap,3,-1.62,active
Tirap,4,-3.13,active
Tirap,5,-2.15,active
Tirap,6,-2.46,active
Pik3cg,1,-0.416,inactive
Pik3cg,2,-1.96,active
Pik3cg,3,-0.362,inactive
Pik3cg,4,1.17,inactive
Pik3cg,5,-0.275,inactive
Pik3cg,6,-1.84,active
"Tnfaip3 (tumor necrosis factor, alpha-induced protein 3)",1,0.0947,inactive
"Tnfaip3 (tumor necrosis factor, alpha-induced protein 3)",2,-1.19,inactive
"Tnfaip3 (tumor necrosis factor, alpha-induced protein 3)",3,1.46,inactive
"Tnfaip3 (tumor necrosis factor, alpha-induced protein 3)",4,0.379,inactive
"Tnfaip3 (tumor necrosis factor, alpha-induced protein 3)",5,-0.818,inactive
"Tnfaip3 (tumor necrosis factor, alpha-induced protein 3)",6,-1.73,active

Reformatted: entries from further up.
gene | reagent no. | p65 translocation z-score | call
Akt3 (Akt serine/threonine kinase 3) | 1 | 0.721 | inactive
Akt3 (Akt serine/threonine kinase 3) | 2 | 0.363 | inactive
Akt3 (Akt serine/threonine kinase 3) | 3 | -0.422 | inactive
Akt3 (Akt serine/threonine kinase 3) | 4 | -0.731 | inactive
Akt3 (Akt serine/threonine kinase 3) | 5 | -0.917 | inactive
Akt3 (Akt serine/threonine kinase 3) | 6 | -0.973 | inactive
Ticam1 (TIR domain containing adaptor molecule 1) | 1 | -2.05 | active
Ticam1 (TIR domain containing adaptor molecule 1) | 2 | -0.351 | inactive
Ticam1 (TIR domain containing adaptor molecule 1) | 3 | -0.946 | inactive
Ticam1 (TIR domain containing adaptor molecule 1) | 4 | 2.2 | active
Ticam1 (TIR domain containing adaptor molecule 1) | 5 | 0.0876 | inactive
